In article doi:10.64898/2025.12.23.696137:
Results are given in words; binding and its absence hold for the method and conditions named. Binding seen in cells or lysates may run through a third protein. A yes stands for co-enrichment or nearness to the bait. Other partners may have been found.

By UniProt entry, the sequences of proteins in these tests, tags left out. Residues count along the entry.
UniProt Q9EPL4, residues 19-318: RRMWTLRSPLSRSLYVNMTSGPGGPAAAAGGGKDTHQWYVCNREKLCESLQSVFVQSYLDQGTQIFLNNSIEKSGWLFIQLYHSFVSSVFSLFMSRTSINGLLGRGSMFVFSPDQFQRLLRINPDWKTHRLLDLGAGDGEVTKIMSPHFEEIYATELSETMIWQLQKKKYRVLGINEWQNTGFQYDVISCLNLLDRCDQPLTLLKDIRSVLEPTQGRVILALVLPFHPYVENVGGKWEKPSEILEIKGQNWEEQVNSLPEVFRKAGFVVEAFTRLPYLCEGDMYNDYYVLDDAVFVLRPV
UniProt P27824, residues 21-592: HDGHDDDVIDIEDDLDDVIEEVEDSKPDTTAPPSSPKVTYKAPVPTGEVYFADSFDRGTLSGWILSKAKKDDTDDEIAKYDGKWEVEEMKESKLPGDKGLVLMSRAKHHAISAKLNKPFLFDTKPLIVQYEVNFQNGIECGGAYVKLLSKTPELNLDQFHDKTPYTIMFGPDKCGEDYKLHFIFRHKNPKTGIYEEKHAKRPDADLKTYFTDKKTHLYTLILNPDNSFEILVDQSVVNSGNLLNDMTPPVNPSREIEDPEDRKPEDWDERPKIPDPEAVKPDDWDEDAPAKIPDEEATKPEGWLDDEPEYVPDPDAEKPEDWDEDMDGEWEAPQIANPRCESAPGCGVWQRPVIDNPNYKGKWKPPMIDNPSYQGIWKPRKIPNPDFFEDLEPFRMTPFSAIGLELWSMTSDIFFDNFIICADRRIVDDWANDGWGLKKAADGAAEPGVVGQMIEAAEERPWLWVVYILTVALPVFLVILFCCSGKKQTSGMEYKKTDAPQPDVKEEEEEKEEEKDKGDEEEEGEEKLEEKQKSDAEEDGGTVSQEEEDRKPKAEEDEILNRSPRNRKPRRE

Molecular target: METTL9-FLAG wild type (mouse) (mouse) (UniProt Q9EPL4)
Test: affinity purification with mass spectrometry

Q: With calnexin (from UniProt P27824 21-592) as the substance, how does the binding read?
A: Its binding is “binds”.
